For part of these data: Shown are results outside the selection of hits, which stands elsewhere. The list shows a part of the results, in another mix than the full data. Active and inactive are the calls of the source. Unless noted, no rule for the calls is given here.
Columns and labels:
[1] = viability loss in A549 cells – cell-based, plate reader, single point, cherry-pick, cytotoxicity control (AID 743188); details: at 25 µM
[2] = viability loss in HepG2 cells – cell-based, plate reader, single point, cherry-pick, cytotoxicity control (AID 743189; in the data active = activity change below about -50%); details: at 25 µM, hits give low values
[3] = viability loss in HEK293 cells – cell-based, plate reader, single point, cherry-pick, cytotoxicity control (AID 743190; in the data active = activity change below about -38%, passing the limit was not always enough); details: at 25 µM

O=c1ccc2ccc(OCc3ccccc3)cc2o1
inactive: cell viability change % (negative = cytotoxic) [1] -5.75% | activity change, negative = inhibition [2] -19.5% | activity change, negative = inhibition [3] -7%
